Measured values as given in PMC7603486.
No constants are given. Whether binding was seen depends on the method and setting. Binding seen in cells or lysates may run through a third protein. Some binding calls cover weakened binding; strength is not graded here.

By UniProt entry, the sequences of proteins in these tests, tags left out. Where a name states a change or a piece, a line headed by the entry shows the natural chain unless it says otherwise. Chains listed by the source or under a name are the forms on record and can include a tag or linker. Residues count along the entry.
Flag-TIM^Ct WT (Q9UNS1, residues 882-1208): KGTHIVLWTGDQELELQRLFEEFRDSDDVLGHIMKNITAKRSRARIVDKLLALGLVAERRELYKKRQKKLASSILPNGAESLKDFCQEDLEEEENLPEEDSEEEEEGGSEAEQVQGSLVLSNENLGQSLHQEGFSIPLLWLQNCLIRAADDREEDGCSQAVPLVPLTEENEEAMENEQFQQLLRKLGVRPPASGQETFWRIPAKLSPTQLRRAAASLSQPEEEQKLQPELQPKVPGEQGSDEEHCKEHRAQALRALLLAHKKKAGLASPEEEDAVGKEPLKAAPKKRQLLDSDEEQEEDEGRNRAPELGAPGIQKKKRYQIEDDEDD
Flag-TIM^Ct PARP1-binding mutant (MT: E1049Q/E1056Q/T1078D) (Q9UNS1, form named): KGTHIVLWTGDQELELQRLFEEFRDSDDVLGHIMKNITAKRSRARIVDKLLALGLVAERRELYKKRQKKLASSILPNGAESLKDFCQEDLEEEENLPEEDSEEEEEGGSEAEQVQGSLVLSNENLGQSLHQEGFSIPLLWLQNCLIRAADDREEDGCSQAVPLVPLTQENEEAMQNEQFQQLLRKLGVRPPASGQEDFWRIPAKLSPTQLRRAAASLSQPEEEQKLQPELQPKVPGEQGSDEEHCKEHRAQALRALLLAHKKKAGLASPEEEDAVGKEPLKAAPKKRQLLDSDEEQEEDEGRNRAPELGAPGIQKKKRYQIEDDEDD
UniProt P09874: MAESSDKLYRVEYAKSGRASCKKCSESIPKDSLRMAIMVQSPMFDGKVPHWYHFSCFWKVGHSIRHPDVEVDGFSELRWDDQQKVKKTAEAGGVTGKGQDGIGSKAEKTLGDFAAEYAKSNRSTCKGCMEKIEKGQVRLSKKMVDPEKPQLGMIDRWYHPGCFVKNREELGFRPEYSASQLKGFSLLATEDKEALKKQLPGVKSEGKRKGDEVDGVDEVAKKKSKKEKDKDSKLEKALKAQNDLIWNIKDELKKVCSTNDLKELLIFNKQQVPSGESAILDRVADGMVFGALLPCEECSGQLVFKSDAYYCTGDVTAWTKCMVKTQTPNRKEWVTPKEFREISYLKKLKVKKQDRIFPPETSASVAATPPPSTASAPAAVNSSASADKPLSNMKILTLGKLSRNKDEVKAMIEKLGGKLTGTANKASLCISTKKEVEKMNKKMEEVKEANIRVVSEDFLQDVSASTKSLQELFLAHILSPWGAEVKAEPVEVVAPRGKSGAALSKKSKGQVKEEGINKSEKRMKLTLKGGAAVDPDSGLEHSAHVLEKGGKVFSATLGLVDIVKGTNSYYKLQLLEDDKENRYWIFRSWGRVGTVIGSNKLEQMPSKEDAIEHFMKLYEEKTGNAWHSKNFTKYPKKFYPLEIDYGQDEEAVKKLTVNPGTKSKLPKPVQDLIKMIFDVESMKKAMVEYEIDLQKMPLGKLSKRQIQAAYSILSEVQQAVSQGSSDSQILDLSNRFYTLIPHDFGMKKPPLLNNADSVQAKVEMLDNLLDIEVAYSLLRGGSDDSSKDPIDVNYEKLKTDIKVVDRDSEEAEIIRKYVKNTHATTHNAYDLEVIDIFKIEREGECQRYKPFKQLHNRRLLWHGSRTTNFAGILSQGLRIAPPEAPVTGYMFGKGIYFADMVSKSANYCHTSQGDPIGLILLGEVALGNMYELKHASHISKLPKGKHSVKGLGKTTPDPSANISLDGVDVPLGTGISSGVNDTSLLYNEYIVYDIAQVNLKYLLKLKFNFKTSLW

Legend:
[1] = target: Flag-TIM^Ct PARP1-binding mutant (MT: E1049Q/E1056Q/T1078D) (human) (UniProt Q9UNS1); test: co-IP; anti-Flag co-IP (anti-FLAG M2 affinity gel) from transfected HEK293T lysates, NETN150 buffer, 4 h at 4 °C
Flag-TIM^Ct WT (human) = Flag-TIM^Ct WT (human) (UniProt Q9UNS1); test: as above

binding [1]: no binding
binding (Flag-TIM^Ct WT (human)): binds
Substance: PARP1, endogenous (from UniProt P09874 1-1014)
